Measured values as given in US8295924B2, “Transdermal systems for the delivery of ionic agents directly to open wounds and surgically repaired incisions” (Teikoku Pharma USA, Inc., priority 2006, dated 2012).

Legend:
[1] = pad saturated with 4% lidocaine, 4 cm^2 delivery pad, current 0.12 mA (0-2 h), 0.33 mA (2-4 h), 0.54 mA (4-6 h); all current densities tested
[2] = iontophoresis through intact skin compared with topical delivery; cited from earlier work

CCN(CC)CC(=O)Nc1c(C)cccc1C [lidocaine]
Concentration of lidocaine generated in the incision [1]: sufficient to cause anesthesia | effectiveness as prophylactic treatment for skin anesthesia [2]: more effective than topical delivery
